This passage reports binding results from paper PMC5323046.

Assay [1] concerns the target T1, HA-tagged RAB27B (human), O00194.
T1 chain: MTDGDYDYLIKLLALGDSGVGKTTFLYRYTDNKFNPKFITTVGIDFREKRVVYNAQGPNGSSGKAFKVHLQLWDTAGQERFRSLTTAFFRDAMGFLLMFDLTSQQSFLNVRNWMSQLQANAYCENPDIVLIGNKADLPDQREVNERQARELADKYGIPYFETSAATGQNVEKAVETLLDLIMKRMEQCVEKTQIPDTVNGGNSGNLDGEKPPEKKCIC
The experiment in a line: affinity purification with mass spectrometry; 293T-REx cells inducibly expressing N-terminally HA-tagged baits; lysis in MCLB (50 mM Tris pH 7.4, 150 mM NaCl, 0.5% NP40); anti-HA-agarose, elution with HA peptide, trypsin, LC-MS/MS; CompPASS, HCIPs with WDN >=1 and APSM >=2. Conditions: remark: other sources report otherwise.

Assay [2] deals with T2, HA-tagged DENND2C (DENN domain containing 2C) (human) (UniProt Q68D51).
T2 sequence: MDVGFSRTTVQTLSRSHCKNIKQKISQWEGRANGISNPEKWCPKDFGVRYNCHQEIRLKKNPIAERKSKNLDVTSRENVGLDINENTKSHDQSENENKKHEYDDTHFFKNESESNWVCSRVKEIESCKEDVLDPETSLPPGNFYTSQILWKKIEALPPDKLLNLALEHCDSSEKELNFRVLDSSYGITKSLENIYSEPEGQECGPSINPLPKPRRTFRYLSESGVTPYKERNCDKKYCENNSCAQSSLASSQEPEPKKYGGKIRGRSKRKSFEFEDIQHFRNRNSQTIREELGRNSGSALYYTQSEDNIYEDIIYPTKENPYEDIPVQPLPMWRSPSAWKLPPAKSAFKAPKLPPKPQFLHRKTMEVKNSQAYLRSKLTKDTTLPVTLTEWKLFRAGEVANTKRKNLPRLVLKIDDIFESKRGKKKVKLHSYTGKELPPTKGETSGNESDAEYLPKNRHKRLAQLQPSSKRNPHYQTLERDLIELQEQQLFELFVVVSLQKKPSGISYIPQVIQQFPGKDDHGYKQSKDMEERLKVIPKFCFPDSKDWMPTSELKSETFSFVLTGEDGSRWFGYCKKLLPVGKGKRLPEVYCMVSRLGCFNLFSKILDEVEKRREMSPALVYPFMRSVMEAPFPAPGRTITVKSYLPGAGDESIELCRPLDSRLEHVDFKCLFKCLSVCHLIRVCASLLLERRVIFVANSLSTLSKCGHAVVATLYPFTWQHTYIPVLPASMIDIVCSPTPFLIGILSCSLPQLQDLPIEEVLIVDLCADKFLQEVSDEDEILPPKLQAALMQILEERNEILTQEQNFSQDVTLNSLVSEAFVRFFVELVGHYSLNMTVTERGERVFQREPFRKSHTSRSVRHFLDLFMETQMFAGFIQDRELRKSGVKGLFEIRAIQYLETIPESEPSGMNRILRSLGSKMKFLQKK
The assay is described as above.

Results are given in words; binding and its absence hold for the method and conditions named. In cells and extracts the contact can be indirect. A yes stands for co-enrichment or nearness to the bait. Other partners may have been found. Tags and fused reporters may be left off the sequences shown.

B1: SYTL5, Q8TDW5 1-730 (protein)
chain: MSKNSEFINLSFLLDHEKEMILGVLKRDEYLKKVEDKRIRKLKNELLEAKRRSGKTQQEASRVCVHCHRNLGLIFDRGDPCQACSLRVCRECRVAGPNGSWKCTVCDKIAQLRIITGEWFFEEKAKRFKQVNVLGTDVVRQSILRRSPGAEEVQSQEQTRQDAEKSDTSPVAGKKASHDGPKRKGFLLSKFRSATRGEIITPKTDTGRSYSLDLDGQHFRSLKSPPGSDRGSTGSSDLNDQEPGPRTPKSSRSNGVTPGTQSSPAPSTRTVTSVISREYGFENSMDLAAIEGTSQELTKSHRRNTSGTPSIAVSGTSLSSDQSRSELDLSESFTEDSEDTVSIRSKSVPGALDKDSLEETEESIDALVSSQLSTNTHRLASGLSTTSLNSMMSVYSETGDYGNVKVSGEILLHISYCYKTGGLYIFVKNCRNLAIGDEKKQRTDAYVKSYLLPDKSRNNKRKTKIRTGTNPEFNETLKYTISHTQLETRTLQLSVWHYDRFGRNSFLGEVEIPFDSWNFENPTDEWFVLQPKVEFAPDIGLQYKGELTVVLRYIPPEENLMLPPEQLQGNKTFKKGKKKESPVISGGILEVFIKEAKNLTAVKSGGTSDSFVKGYLLPDDSKATKHKTLVIKKSVNPQWNHTFMFSGIHPQDIKNVCLELTIWDKEAFSSNIFLGGVRLNSGSGVSHGKNVDWMDSQGEEQRLWQKMANNPGTPFEGVLMLRSSMGKCRL
B1: the binding result in assay [1] is recorded as “binds”.

B2: ARHGAP26 (protein, UniProt Q9UNA1 1-814)
chain: MGLPALEFSDCCLDSPHFRETLKSHEAELDKTNKFIKELIKDGKSLISALKNLSSAKRKFADSLNEFKFQCIGDAETDDEMCIARSLQEFATVLRNLEDERIRMIENASEVLITPLEKFRKEQIGAAKEAKKKYDKETEKYCGILEKHLNLSSKKKESQLQEADSQVDLVRQHFYEVSLEYVFKVQEVQERKMFEFVEPLLAFLQGLFTFYHHGYELAKDFGDFKTQLTISIQNTRNRFEGTRSEVESLMKKMKENPLEHKTISPYTMEGYLYVQEKRHFGTSWVKHYCTYQRDSKQITMVPFDQKSGGKGGEDESVILKSCTRRKTDSIEKRFCFDVEAVDRPGVITMQALSEEDRRLWMEAMDGREPVYNSNKDSQSEGTAQLDSIGFSIIRKCIHAVETRGINEQGLYRIVGVNSRVQKLLSVLMDPKTASETETDICAEWEIKTITSALKTYLRMLPGPLMMYQFQRSFIKAAKLENQESRVSEIHSLVHRLPEKNRQMLQLLMNHLANVANNHKQNLMTVANLGVVFGPTLLRPQEETVAAIMDIKFQNIVIEILIENHEKIFNTVPDMPLTNAQLHLSRKKSSDSKPPSCSERPLTLFHTVQSTEKQEQRNSIINSSLESVSSNPNSILNSSSSLQPNMNSSDPDLAVVKPTRPNSLPPNPSPTSPLSPSWPMFSAPSSPMPTSSTSSDSSPVRSVAGFVWFSVAAVVLSLARSSLHAVFSLLVNFVPCHPNLHLLFDRPEEAVHEDSSTPFRKAKALYACKAEHDSELSFTAGTVFDNVHPSQEPGWLEGTLNGKTGLIPENYVEFL
For the molecule B2, the binding entry in assay [2] was “binds”.

B3: FYCO1 (protein, UniProt Q9BQS8 1-1478)
chain: MASTNAESQLQRIIRDLQDAVTELSKEFQEAGEPITDDSTSLHKFSYKLEYLLQFDQKEKATLLGNKKDYWDYFCACLAKVKGANDGIRFVKSISELRTSLGKGRAFIRYSLVHQRLADTLQQCFMNTKVTSDWYYARSPFLQPKLSSDIVGQLYELTEVQFDLASRGFDLDAAWPTFARRTLTTGSSAYLWKPPSRSSSMSSLVSSYLQTQEMVSNFDLNSPLNNEALEGFDEMRLELDQLEVREKQLRERMQQLDRENQELRAAVSQQGEQLQTERERGRTAAEDNVRLTCLVAELQKQWEVTQATQNTVKELQTCLQGLELGAAEKEEDYHTALRRLESMLQPLAQELEATRDSLDKKNQHLASFPGWLAMAQQKADTASDTKGRQEPIPSDAAQEMQELGEKLQALERERTKVEEVNRQQSAQLEQLVKELQLKEDARASLERLVKEMAPLQEELSGKGQEADQLWRRLQELLAHTSSWEEELAELRREKKQQQEEKELLEQEVRSLTRQLQFLETQLAQVSQHVSDLEEQKKQLIQDKDHLSQQVGMLERLAGPPGPELPVAGEKNEALVPVNSSLQEAWGKPEEEQRGLQEAQLDDTKVQEGSQEEELRQANRELEKELQNVVGRNQLLEGKLQALQADYQALQQRESAIQGSLASLEAEQASIRHLGDQMEASLLAVRKAKEAMKAQMAEKEAILQSKEGECQQLREEVEQCQQLAEARHRELRALESQCQQQTQLIEVLTAEKGQQGVGPPTDNEARELAAQLALSQAQLEVHQGEVQRLQAQVVDLQAKMRAALDDQDKVQSQLSMAEAVLREHKTLVQQLKEQNEALNRAHVQELLQCSEREGALQEERADEAQQREEELRALQEELSQAKCSSEEAQLEHAELQEQLHRANTDTAELGIQVCALTVEKERVEEALACAVQELQDAKEAASREREGLERQVAGLQQEKESLQEKLKAAKAAAGSLPGLQAQLAQAEQRAQSLQEAAHQELNTLKFQLSAEIMDYQSRLKNAGEECKSLRGQLEEQGRQLQAAEEAVEKLKATQADMGEKLSCTSNHLAECQAAMLRKDKEGAALREDLERTQKELEKATTKIQEYYNKLCQEVTNRERNDQKMLADLDDLNRTKKYLEERLIELLRDKDALWQKSDALEFQQKLSAEERWLGDTEANHCLDCKREFSWMVRRHHCRICGRIFCYYCCNNYVLSKHGGKKERCCRACFQKLSEGPGSPDSSGSGTSQGEPSPALSPASPGPQATGGQGANTDYRPPDDAVFDIITDEELCQIQESGSSLPETPTETDSLDPNAAEQDTTSTSLTPEDTEDMPVGQDSEICLLKSGELMIKVPLTVDEIASFGEGSRELFVRSSTYSLIPITVAEAGLTISWVFSSDPKSISFSVVFQEAEDTPLDQCKVLIPTTRCNSHKENIQGQLKVRTPGIYMLIFDNTFSRFVSKKVFYHLTVDRPVIYDGSDFL
Turning to B3, in assay [2], the binding entry was “binds”.
